The campaign covered roughly 52,000 sequences. About 210 (0.4%) were called active.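 How the source made its calls: active means gene whose silencing raises cell survival under the drug, median off-target-corrected z-score across its silencing RNAs 2 or more; inactive means the rest.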 The list shows a part of the results.

A short description of the assay: Resistance to Poly (ADP-Ribose) Polymerase inhibitor: Gene Identification via Genome-wide siRNA Screen. The note with it: mouse BRCA2 R2336H ES cells, olaparib, CellTiter-Glo viability; hits give high values. The method in brief:
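Genome-wide siRNA screen (3 siRNAs/gene, 20 nM) in mouse ES cells carrying hypomorphic BRCA2 R2336H; olaparib 500 nM added 48 h post-transfection, CellTiter-Glo viability 72 h later. Normalized to plate-median negative control; MAD z-scores, gene median, seed-adjusted.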
(In general: Cellular ATP, detected with luciferase, serves as a proxy for viable cell number.)
Take GGGCGUGAUUUAUUUCUACTT against BC024997: the z-score is inactive: -0.892. GGGUCCAUCAAGAAUUCUCTT against Rab5c: the z-score was inactive: 0.879. For GGUCCCAUAUACCAGAUCUTT against Slc3a1, the z-score was inactive: -1.81.

Take GGUGUCCAAUUGCCCUAUCTT against Tnfrsf12a: the z-score was inactive: 1.13. The figure for GCGCCUUAUGCAGGAAUACTT against Rabgap1 is inactive: 0.605.

GGAAGCAGCUACUGGAAGATT against Pscd4: the z-score is inactive: -0.33. With GGAUGAUAUCGGAGCCUGCTT against Clec4g the figure was inactive: -1.12.

Regarding GCUGGGUCAAACAUGACGUTT against Klhl17, the z-score was inactive: 0.633. The figure for CCAACUGUUGGUGAUGAUGTT against Cpsf6 is inactive: -3.05. With GGUCCUGUUGAGAAUUUAATT against Zdhhc15 the figure was inactive: 0.677. With CGUAAGAAAGACUCGUUUATT against AI595366 the figure was inactive: -1.33; with “GGAGAGAGAUUUUCAAUAUTT against E330008O22Rik”, inactive: -0.227. Consider GGCCAAAAAAACAUACAAGTT against Zfp295, for which the z-score was inactive: -0.0319. On to GCAAAAUCACGCUAACGACTT against Uts2, for which the z-score was inactive: 0.79.

On to “GGUGAACUCAGACUGAAUGTT against 1700021F05Rik”, for which the z-score is inactive: 0.864. With “GGUGACACUUCUUGUGGAUTT against 2410004N11Rik” the figure was inactive: -0.17; with CCAUCGUAUUUAACCACAUTT against Dtymk, inactive: 0.621. Consider GGAAUCGAGAUAUAAAAGGTT against Olfr352, for which the z-score was inactive: -0.179.

Turning to CCCAGUAAUCCGUUACAAATT against Cyp51, the z-score was inactive: -0.664. With GGCUUUAGAGAAAGAAGUATT against Vdrip the figure was inactive: 0.273; with CCUGAGUGAAAACUACUUATT against Nagk, inactive: 0.436; with GGAUAGAACACUUUCUUUUTT against Gyk, inactive: 0.148. With GCUGCUAUCCAGAAGGUAUTT against Egr2, the z-score is inactive: 1.88. Consider “GGUUCUUCAGGACAAUGUGTT against 9530090G24Rik”, for which the z-score is inactive: -0.225. The figure for “GGUUCGUGUAACCAAAGUCTT against 2310039E09Rik” is inactive: -1.76; for “GGAAGGUUCCCUUGAGUUCTT against 4930556P03Rik” it is inactive: -1.81; for GGGAACAGAAGUCAAGGCATT against Arch it is inactive: -0.775.

Take GGCUGGGCUCUAUGGAUUATT against Fasn: the z-score was inactive: 2.21. With GGCUAGUGGUUUAUUUAUGTT against Pafah1b1, the z-score is inactive: 0.0695.

Source of the values: PubChem BioAssay AID1347423 (Functional Genomics Laboratory (NCATS/FGL), 2020).
